Taken from: PubChem BioAssay AID1259425 (University of Nebraska Medical Center, 2018)
Screen: 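Find knockdowns that reproduce the gene expression pattern seen when KSR1 is lost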 (primary screen). Cells: HCT116 human colon cancer cells. Knock-down reagent: siRNA pool against human genes, 50 nM siRNA. Measurement: 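mRNA of six signature genes measured together by branched-DNA assay after 50 nM siRNA pool, blank removed, divided by geometric mean of two housekeeping genes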. Scale: BNIP3L mRNA: higher = more BNIP3L transcript after knockdown; NDRG1 mRNA: higher = more NDRG1 transcript after knockdown; BNIP3 mRNA: higher = more BNIP3 transcript after knockdown; ALDOC mRNA: higher = more ALDOC transcript after knockdown; ACSL5 mRNA: higher = more ACSL5 transcript after knockdown.
The deposit covers about 14,000 reagents; below is a part drawn at random. No sequences are given here. The record does not give: the time to read-out.

| gene knocked down | BNIP3L mRNA, set 1 | NDRG1 mRNA, set 1 | BNIP3 mRNA, set 1 | ALDOC mRNA, set 1 | ACSL5 mRNA, set 1 |
| --- | --- | --- | --- | --- | --- |
| PRPF6 (pre-mRNA processing factor 6) | 0.0535 | 0.283 | 0.498 | 0.0815 | 0.252 |
| PIGA (phosphatidylinositol glycan anchor biosynthesis class A) | 0.0708 | 0.143 | 0.265 | 0.0264 | 0.124 |
| SCGB3A2 (secretoglobin family 3A member 2) | 0.105 | 0.135 | 0.273 | 0.014 | 0.0791 |
| PTCH2 (patched 2) | 0.0646 | 0.205 | 0.336 | 0.0234 | 0.171 |
| COX10 | 0.0681 | 0.0291 | 0.155 | -0.00346 | 0.251 |
| MLH3 (mutL homolog 3) | 0.0923 | 0.29 | 0.27 | 0.0113 | 0.206 |
| DOK2 (docking protein 2) | 0.0898 | 0.396 | 0.337 | 0.0313 | 0.237 |
| ADAMTS15 (ADAM metallopeptidase with thrombospondin type 1 motif 15) | 0.0902 | 0.233 | 0.187 | 0.0424 | 0.051 |
| TAF1A | 0.0643 | 0.0999 | 0.272 | 0.012 | 0.123 |
| FBXO31 (F-box protein 31) | 0.144 | 0.34 | 0.207 | 0.0171 | 0.192 |
| DAPK2 (death associated protein kinase 2) | 0.0894 | 0.198 | 0.307 | 0.00285 | 0.413 |
| BANF1 (barrier to autointegration nuclear assembly factor 1) | 0.0961 | 0.614 | 0.302 | 0.0283 | 0.168 |
| BRINP1 (BMP/retinoic acid inducible neural specific 1) | 0.0738 | 0.167 | 0.322 | 0.0334 | 0.132 |
| PPP1R3B (protein phosphatase 1 regulatory subunit 3B) | 0.0806 | 0.224 | 0.319 | 0.04 | 0.335 |
| ZNF665 (zinc finger protein 665) | 0.0889 | 0.234 | 0.273 | 0.0219 | 0.128 |
| IL13RA2 (interleukin 13 receptor subunit alpha 2) | 0.0849 | 0.0971 | 0.258 | 0.0231 | 0.12 |
| POLR1D (RNA polymerase I and III subunit D) | 0.164 | 0.106 | 0.307 | 0.0114 | 0.265 |
| SEL1L3 (SEL1L family member 3) | 0.139 | 0.175 | 0.227 | 0.0376 | 0.0938 |
| FAM220A (family with sequence similarity 220 member A) | 0.161 | 0.111 | 0.265 | 0.0489 | 0.074 |
| EXOSC7 (exosome component 7) | 0.0974 | 0.0741 | 0.232 | 0.0143 | 0.104 |

Part of the list above, limited to “ACSL5 mRNA, set 1”.
FAM220A (family with sequence similarity 220 member A) = 0.074
EXOSC7 (exosome component 7) = 0.104

The listing continues.
| gene knocked down | BNIP3L mRNA, set 1 | NDRG1 mRNA, set 1 | BNIP3 mRNA, set 1 | ALDOC mRNA, set 1 | ACSL5 mRNA, set 1 |
| --- | --- | --- | --- | --- | --- |
| FIS1 (fission, mitochondrial 1) | 0.0501 | 0.0871 | 0.266 | 0.0121 | 0.215 |
| CD163 (CD163 molecule) | 0.0452 | 0.323 | 0.242 | 0.0277 | 0.15 |
| FANCC (FA complementation group C) | 0.179 | 0.33 | 0.296 | 0.0137 | 0.337 |
| B3GALNT2 (beta-1,3-N-acetylgalactosaminyltransferase 2) | 0.18 | 0.127 | 0.252 | 0.0458 | 0.0508 |
| LYPD3 (LY6/PLAUR domain containing 3) | 0.121 | 0.28 | 0.282 | 0.0277 | 0.15 |
| YARS2 (tyrosyl-tRNA synthetase 2) | 0.117 | 0.443 | 0.325 | 0.0353 | 0.309 |
| PAICS | 0.158 | 0.289 | 0.429 | 0.0751 | 0.124 |
| NKX3-2 (NK3 homeobox 2) | 0.173 | 0.117 | 0.24 | 0.0197 | 0.123 |
| LIMA1 (LIM domain and actin binding 1) | 0.0621 | 0.113 | 0.338 | 0.0242 | 0.185 |
| SNX7 (sorting nexin 7) | 0.057 | 0.16 | 0.271 | 0.0118 | 0.192 |
| CSH1 (chorionic somatomammotropin hormone 1) | 0.089 | 0.093 | 0.238 | 0.0237 | 0.0729 |
| EFNB3 (ephrin B3) | 0.218 | 0.178 | 0.243 | 0.0462 | 0.156 |
| CD8A (CD8 subunit alpha) | 0.076 | 0.0997 | 0.229 | 0.022 | 0.099 |
| PF4V1 (platelet factor 4 variant 1) | 0.204 | 0.603 | 0.323 | 0.0401 | 0.22 |
